Measurements published in PubChem BioAssay AID2685 (National Center for Advancing Translational Sciences (NCATS), 2010).
This is one part of the list. The main result of the screen is listed elsewhere. These columns were measured beside it and carry no call. Compounds called inactive in the main read-out are mostly missing here. The note in brackets gives the kind of curve behind each potency; many fits are weak.

Test: qHTS Assay for Lipid Storage Modulators in Drosophila S3 Cells;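 on cell number change: cells counted by Cell Tracker Red CMTPX staining in the red channel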
Conditions: BODIPY lipid droplet fluorescence, 18-24 h; for cell number change: measured here: cell count max response, cells fed with added oleic acid
How it was run: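 Drosophila S3 cells loaded with oleic acid (400 uM, as added) and compounds at several concentrations; lipid droplets imaged by 488-nm laser-scanning cytometry, 500–530 nm intensity and object ratio to cell channel. Percent activity normalized to 20 uM Triacsin C.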

[1] = measured here: lipid fluorescence (Fed channel) AC50, cells fed with added oleic acid
[2] = measured here: cell number channel AC50, cells fed with added oleic acid

| SMILES | cell number change [%] | AC50 [1] | AC50 [2] |
| --- | --- | --- | --- |
| Cc1cc(C(=O)CSc2nn3c(=O)c(C(C)(C)C)nnc3s2)c(C)n1C | 2.49 | 1.84 µM [falling, partial curve] |  |
| CCOC(=O)c1nn(-c2ccccc2C)c2nc(-c3ccc(C)cc3)c(C#N)c(=O)n12 | 5.84 |  |  |
| Cc1cccc2cc(CN(Cc3ccco3)C(=O)c3cccs3)c(=O)[nH]c12 |  | 0.146 µM [rising, full curve, poor fit] | 0.146 µM [rising, full curve, poor fit] |
| NC(=O)c1ccc(NC(=O)Cn2c(=O)n(-c3ccccc3)c(=O)c3oc4ccccc4c32)cc1 | 33.6 | 29.1 µM [rising, single point] | 14.6 µM [rising, single point] |
| COc1ccc(C(=O)c2cc([N+](=O)[O-])ccc2N2CCN(C)CC2)cc1 | -5.65 | 0.00461 µM [falling, full curve, poor fit] |  |
| CCOC(=O)Cc1csc(NC(=O)c2c(O)c3ccccc3n(CC(C)C)c2=O)n1 | 32.1 | 1.16 µM [rising, partial curve] | 2.59 µM [rising, full curve, poor fit] |
| COc1cccc(NC(=O)Nc2c(C)n(C)n(-c3ccccc3)c2=O)c1 | 31 |  | 16.4 µM [rising, partial curve, poor fit] |
| O=C(N/N=C/C(Cl)=C/c1ccccc1)c1ccccc1F | 8.11 | 11.6 µM [falling, single point] |  |
| Cc1cc(=O)oc2cc(OC(C)C(=O)NCC3CCC(C(=O)O)CC3)ccc12 (configuration not stated) | 4.53 | 0.164 µM [falling, full curve, poor fit] |  |
| COc1ccccc1C(=O)NCC(c1cccnc1)N(C)C (configuration not stated) | -7.32 | 0.461 µM [rising, partial curve] |  |
| O=c1oc2c3c4c(cc2s1)CCCN4CCC3 | 390 | 20.6 µM [rising, partial curve] | 20.6 µM [rising, partial curve] |
| COc1cccc(NC(=O)Cn2c3ccccc3c3nc4n(c(=O)c32)CCS4)c1 | -165 | 29.1 µM [falling, single point] | 29.1 µM [falling, single point] |
| Cc1ccc(Cl)cc1NC(=S)N(CCCN1CCN(C)CC1)Cc1cccs1 |  | 5.8 µM [falling, single point] |  |
| CS(=O)(=O)NNC(=O)c1csc(Cc2c(Cl)sc3ccc(Cl)cc23)n1 | -5.71 |  | 0.13 µM [rising, full curve, poor fit] |
| COc1cc(CC(=O)OCn2nnc3ccccc3c2=O)cc(OC)c1OC | 94.7 |  | 16.4 µM [rising, partial curve] |
| COc1ccc(N2CC(C(=O)Nc3nc4ccc(F)cc4s3)CC2=O)c(OC)c1 (configuration not stated) | 11.5 | 6.31 µM [rising, single point] |  |
| Cc1ccc2c(c1)Sc1ccccc1CC2=O | 20.6 | 16.4 µM [rising, single point] |  |
| COC(=O)c1c(NC(=O)C2c3ccccc3Oc3ccccc32)sc(C)c1C | 193 |  | 29.1 µM [rising, single point] |
| CCc1ccc(/C=N/NC(=O)c2cc(C3CC3)nc3ccc(Br)cc23)s1 |  | 2.31 µM [rising, partial curve] | 0.411 µM [rising, full curve] |

Quoted from above, 3 compounds:

| SMILES | cell number change [%] | AC50 [1] | AC50 [2] |
| --- | --- | --- | --- |
| CCOC(=O)c1nn(-c2ccccc2C)c2nc(-c3ccc(C)cc3)c(C#N)c(=O)n12 | 5.84 |  |  |
| Cc1cccc2cc(CN(Cc3ccco3)C(=O)c3cccs3)c(=O)[nH]c12 |  | 0.146 µM [rising, full curve, poor fit] | 0.146 µM [rising, full curve, poor fit] |
| NC(=O)c1ccc(NC(=O)Cn2c(=O)n(-c3ccccc3)c(=O)c3oc4ccccc4c32)cc1 | 33.6 | 29.1 µM [rising, single point] | 14.6 µM [rising, single point] |

More compounds:

| SMILES | cell number change [%] | AC50 [1] | AC50 [2] |
| --- | --- | --- | --- |
| COc1ccc(-c2nnc(SCC(=O)Nc3ncc(C)s3)n2-c2ccccc2)cc1OC | 17.7 | 16.4 µM [rising, partial curve] |  |
| COc1ccc(/C=N/NC(=O)Cn2cnc3c2c(=O)n(C)c(=O)n3C)c(OC)c1OC | -14.1 | 0.146 µM [falling, full curve, poor fit] |  |
| Cc1ccc(NC2=C([N+](=O)[O-])CS(=O)(=O)C2)cc1 | 35.1 |  | 0.184 µM [rising, full curve] |
| COc1cc(S(=O)(=O)NCC2CCCO2)c(OC)cc1Cl (configuration not stated) | 0.651 |  | 0.092 µM [falling, full curve, poor fit] |
| CC(C)(C)c1ccc(C(CC(=O)O)NC(=O)C23CC4CC(CC(C4)C2)C3)cc1 (configuration not stated) | -12.4 |  |  |
| COc1ccccc1/C=C1\SC(=O)N(CC(=O)NCCCn2ccnc2)C1=O | -7.63 | 29.1 µM [falling, single point] |  |
| COCC1CCCCN1C(=O)c1cc(COc2ccc3ncccc3c2)on1 (configuration not stated) | -92.7 | 1.16 µM [falling, full curve] | 11.6 µM [falling, partial curve] |
| COC(=O)C1=C(C)N(Cc2ccccc2)C(=NCCc2ccccn2)N[C@H]1c1cccc(F)c1 | -1.29 |  |  |
| CCc1ccccc1NS(=O)(=O)c1cc(C)ccc1OC | -3.64 | 10.3 µM [rising, partial curve] |  |
| O=C(Nc1ccccc1Cl)c1cnccn1 | -0.597 |  |  |
| CCOc1ccc(S(=O)(=O)N(CCO)CCO)cc1-c1nc2c(C(C)(C)C)nn(C)c2c(=O)[nH]1 | 35.3 |  | 14.6 µM [rising, single point] |
| Cc1cc(N2CCOCC2)nc(SCc2c(Cl)cccc2Cl)n1 | 9.52 |  |  |
| COc1ccccc1/C=C/C1=NC(=C\N(C)C)/C(=O)O1 |  |  | 0.058 µM [rising, full curve, poor fit] |
| CCSc1nnc(-c2c[nH]c3ccccc23)o1 | 47.7 | 1.46 µM [rising, partial curve] | 0.259 µM [rising, full curve] |
| COc1ccc([C@@H]2C[C@@H](c3ccccc3)Oc3cc(OC)cc(OC)c32)cc1 | 13.2 |  |  |
| Cc1ccc(C(=O)NN2C(=O)C3C4C=CC([C@@H]3C2=O)C42CC2)cc1 (some centres not stated) | -9.52 | 2.31 µM [rising, single point] | 2.31 µM [falling, single point] |
| O=C(Cc1ccc([N+](=O)[O-])cc1)Nc1ccc2c(c1)CCC2 | 13 | 29.1 µM [falling, single point] |  |
| CCC1=C(C(=O)OC)C(c2cc(OC)ccc2OC)C(C#N)=C(N)O1 (configuration not stated) |  | 2.31 µM [rising, partial curve] |  |
